# Measured values published in the supplement of paper PMC11348887.
# Structures can show the parent of a compound that is named as a salt. Some of the results follow. Most entries show no effect beyond the scatter of the controls.
# Experiments:
# Conditions in all cases: 5 µM; treatment: days 7-14 after plating, readout day 21
# [1] = tested on: hPSC-derived cortical neurons (WA09); assay: nucleus area z-score vs screen plate; higher = larger nuclei (more mature)
# [2] = tested on: hPSC-derived cortical neurons (WA09); assay: total neurite length per nucleus (MAP2) z-score; higher = more neurite growth
# [3] = tested on: hPSC-derived cortical neurons (WA09); assay: nucleus roundness z-score vs screen plate; higher = rounder nuclei (more mature)
# [4] = tested on: hPSC-derived cortical neurons (WA09); assay: KCl-induced FOS+/EGR-1+ double-positive nuclei fraction z-score (KCl minus unstimulated); higher = stronger activity-induced IEG response
Compound,nucleus area z-score [1],total neurite length per nucleus (z-score) [2],nucleus roundness z-score [3],KCl-induced FOS+/EGR-1+ double-positive nuclei fraction z-score [4]
CN(C)[C@@H]1C(O)=C(C(N)=O)C(=O)[C@@]2(O)C(O)=C3C(=O)c4c(O)ccc(Cl)c4[C@@H](O)[C@H]3C[C@@H]12 [Demeclocycline HCl],1.22,-0.408,-0.145,0.146
COc1cc2nc(N3CCCC3)nc(NCCCCCN3CCCC3)c2cc1OC,-8.9,-3.53,-7.51,0.814
O=C(O)CSc1cc(NS(=O)(=O)c2ccc(Br)cc2)c2ccccc2c1O,-2.14,-0.867,-2.72,-0.137
CCCCOc1cc(C(=O)OCCN(CC)CC)ccc1N [Oxybuprocaine HCl],0.343,0.348,0.664,1.33
C[C@H](NC(=O)Cc1cc(F)cc(F)c1)C(=O)N[C@@H]1C(=O)N(C)c2ccccc2-c2ccccc21,0.791,0.201,0.00915,1.08
COc1ccc(C[C@H](N)C(=O)N[C@H]2[C@@H](O)[C@H](n3cnc4c(N(C)C)ncnc43)O[C@@H]2CO)cc1 [Puromycin 2HCl],-16.3,-6.24,-9.59,-0.979
O=C(NCc1ccncc1)C12CC3CC(C1)CC(c1ccc(Cl)cc1)(C3)C2,2.12,-0.596,-0.631,0.628
Cc1cc2c(s1)Nc1ccccc1N=C2N1CCN(C)CC1 [Olanzapine],-0.0934,-0.395,0.108,0.209
COc1ncc(-c2cc(-c3ncc(CN4C[C@@H](C)O[C@@H](C)C4)o3)c3cn[nH]c3c2)cc1NS(C)(=O)=O,-3.23,-1.47,-0.0524,-0.763
CCN(CC)CC#CCOC(=O)C(O)(c1ccccc1)C1CCCCC1 (configuration not stated) [Oxybutynin chloride],-0.705,0.00772,0.66,0.991
COc1cc2c(cc1OC)CN(CCc1ccc(NC(=O)c3cc(OC)c(OC)cc3NC(=O)c3cnc4ccccc4c3)cc1)CC2 [Tariquidar],-1.76,-0.94,-0.482,0.347
CC(=O)CCCCn1c(=O)c2c(ncn2C)n(C)c1=O [Pentoxifylline],1.43,1.11,-0.77,0.628
Nc1ncnc2c1ncn2[C@@H]1O[C@H](CO)[C@@H](O)[C@@H]1O [Vidarabine],-0.29,2.13,0.665,1.98
Cc1cc(N2CCN([C@@H]3CN[C@H](C(=O)N4CCSC4)C3)CC2)n(-c2ccccc2)n1 [Teneligliptin hydrobromide],0.209,0.682,0.392,-0.124
NC(=O)c1nc(F)cnc1O [Favipiravir (T-705)],0.74,1.39,1.24,-0.104
CCN[C@H]1C[C@H](C)S(=O)(=O)c2sc(S(N)(=O)=O)cc21 [Dorzolamide HCl],0.908,0.16,0.25,1.69
COc1cc(-c2cc(-c3ccc(N4CCNCC4)cc3)cnc2C)cc(OC)c1OC,1.51,1.3,0.957,1.63
CN(C)CCC(c1ccccc1)c1ccccn1 (configuration not stated) [Pheniramine Maleate],-0.06,0.198,0.338,-0.254
CN1C(=O)[C@@H](NC(=O)c2cc(Cc3ccccc3)on2)COc2ccccc21,-1.97,0.7,-0.308,2.01
CN1CCC(=C2c3ccccc3CCc3cccnc32)CC1 [Azatadine dimaleate],0.216,0.778,1.19,2.58
CC(C)[N+]1(C)[C@@H]2CC[C@H]1C[C@@H](OC(=O)C(CO)c1ccccc1)C2 (some centres not stated) [Ipratropium Bromide],1.12,-0.772,-0.6,-0.303
Cc1ccc(C(=O)N(CCCN)[C@@H](c2nc3cc(Cl)ccc3c(=O)n2Cc2ccccc2)C(C)C)cc1,-9.92,-3.71,-7.45,-3.45
CO[C@H]1O[C@@H]2O[C@@]3(C)CC[C@H]4[C@H](C)CC[C@@H]([C@H]1C)[C@@]24OO3 [Artemether],-0.358,0.398,0.486,-0.0912

# An excerpt taken from the entries so far, for reference:
Compound,nucleus area z-score [1],total neurite length per nucleus (z-score) [2],nucleus roundness z-score [3],KCl-induced FOS+/EGR-1+ double-positive nuclei fraction z-score [4]
O=C(O)CSc1cc(NS(=O)(=O)c2ccc(Br)cc2)c2ccccc2c1O,-2.14,-0.867,-2.72,-0.137
CCCCOc1cc(C(=O)OCCN(CC)CC)ccc1N [Oxybuprocaine HCl],0.343,0.348,0.664,1.33
